# Laboratory results taken from the supplement of paper PMC4635364.
# Structures can show the parent of a compound that is named as a salt. The list shows a part of the results. Single values are uncertain here, since repeats match poorly.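 Human fetal ventral-midbrain neural progenitor line ReNCell VM, differentiated without mitogens. Images stained for doublecortin (early neurons) or tyrosine hydroxylase (dopaminergic neurons) were scored by blinded raters against untreated wells (0 = no change). Repeats and both raters were averaged, and compounds averaging 2 or higher were picked as hits for retesting.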
# Tests used:
# [1] = tested on: ReNCell VM; assay: neuronal differentiation score (DCX+ cell fraction vs untreated, manual image score) (score (-3 to 3)); higher = more neuronal differentiation; settings: 2 uM, 2 weeks
# [2] = tested on: ReNCell VM; assay: dopaminergic neuron differentiation score (TH+ cell fraction vs untreated, manual image score) (score (0 to 3)); higher = more TH+ dopaminergic neuron differentiation; settings: 2 uM, 4 weeks, BDNF 10 ng/ml + GDNF 10 ng/ml
compound,measurement,setting,value
CS(=O)(=O)c1ccc([C@@H](O)[C@@H](CF)NC(=O)C(Cl)Cl)cc1 [Florfenicol],neuronal differentiation score,[1]; library: Prestwick,inactive: 0
same,dopaminergic neuron differentiation score,[2]; library: Prestwick,inactive: 0
COc1cc(O)c(C(C)=O)c(O)c1,neuronal differentiation score,[1]; library: Spectrum,inactive: 0
same,dopaminergic neuron differentiation score,[2]; library: Spectrum,inactive: 1
COc1cc(/C=C/C(=O)O)cc(OC)c1OC,neuronal differentiation score,[1]; library: Spectrum,inactive: 0
same,dopaminergic neuron differentiation score,[2]; library: Spectrum,inactive: 0
CCN(CC)CCNC(=O)c1cc(Cl)c(N)cc1OC [Metoclopramide monohydrochloride],neuronal differentiation score,[1]; library: Prestwick,inactive: 0
same,dopaminergic neuron differentiation score,[2]; library: Prestwick,inactive: 0
Cn1c(=O)c2nc(C3CCCC3)[nH]c2n(C)c1=O,neuronal differentiation score,[1]; library: Spectrum,inactive: 0
same,dopaminergic neuron differentiation score,[2]; library: Spectrum,inactive: 0
O=C1O[C@H]([C@@H](O)CO)C(O)=C1O [Ascorbic acid],neuronal differentiation score,[1]; library: Prestwick,inactive: 0
same,dopaminergic neuron differentiation score,[2]; library: Prestwick,inactive: 0
NCCCCC(=O)O [5-Aminovaleric acid hydrochloride],neuronal differentiation score,[1]; library: LOPAC,inactive: 0
same,dopaminergic neuron differentiation score,[2]; library: LOPAC,inactive: 0
CN[C@H](CC(=O)O)C(=O)O,neuronal differentiation score,[1]; library: Spectrum,inactive: 0
same,dopaminergic neuron differentiation score,[2]; library: Spectrum,inactive: 0
CCc1ccc2c(O)c3c(cc2c1C(=O)OC)C(=O)c1c(O)ccc(O)c1C3=O,neuronal differentiation score,[1]; library: Spectrum,inactive: 0
same,dopaminergic neuron differentiation score,[2]; library: Spectrum,inactive: 0
COC(=O)CC1C(C)(C)C(OC(C)=O)[C@@H]2[C@@H](OC(C)=O)[C@]34O[C@@]2(O)[C@]1(C)C3CC[C@]1(C)C4=CC(=O)O[C@H]1c1ccoc1 (stereo partly drawn),neuronal differentiation score,[1]; library: Spectrum,inactive: 0
same,dopaminergic neuron differentiation score,[2]; library: Spectrum,inactive: 1
CC(C)(CO)[C@@H](O)C(=O)NCCC(=O)O [PANTOTHENIC ACID(d) Na salt],neuronal differentiation score,[1]; library: Spectrum,inactive: 0
same,dopaminergic neuron differentiation score,[2]; library: Spectrum,inactive: 0
O=c1cc(-c2ccccc2)oc2ccc(O)cc12,neuronal differentiation score,[1]; library: Spectrum,inactive: 0
same,dopaminergic neuron differentiation score,[2]; library: Spectrum,inactive: 0
CCn1cc(C(=O)O)c(=O)c2cc(F)c(N3CCNCC3)cc21,neuronal differentiation score,[1]; library: Spectrum,inactive: 0
same,dopaminergic neuron differentiation score,[2]; library: Spectrum,inactive: 0
CN(C)CCN(Cc1ccccc1)c1ccccn1,neuronal differentiation score,[1]; library: Spectrum,inactive: 0
same,dopaminergic neuron differentiation score,[2]; library: Spectrum,inactive: 0
"CC(C(=O)O)[C@H]1CCC2C3CC=C4C[C@@H](O)CC[C@]4(C)C3CC[C@@]21C (stereo partly drawn) [3beta-HYDROXY-23,24-BISNORCHOL-5-ENIC ACID]",neuronal differentiation score,[1]; library: Spectrum,inactive: 0
same,dopaminergic neuron differentiation score,[2]; library: Spectrum,inactive: 0
CC(=O)NS(=O)(=O)c1ccc(NC(=O)c2ccccc2C(=O)O)cc1,neuronal differentiation score,[1]; library: Spectrum,inactive: 0
same,dopaminergic neuron differentiation score,[2]; library: Spectrum,inactive: 0
CCCCCCOc1ccccc1C(N)=O,neuronal differentiation score,[1]; library: Spectrum,inactive: 0
same,dopaminergic neuron differentiation score,[2]; library: Spectrum,inactive: 0
"CN(C)CCC(c1ccc(Br)cc1)c1ccccn1 (single isomer, unassigned; (+)) [(+)-Brompheniramine maleate]",neuronal differentiation score,[1]; library: LOPAC,inactive: 0
same,dopaminergic neuron differentiation score,[2]; library: LOPAC,inactive: 0
CN1[C@@H]2CC[C@H]1C[C@@H](OC(=O)C(O)c1ccccc1)C2 (stereo partly drawn),neuronal differentiation score,[1]; library: Spectrum,inactive: -1
same,dopaminergic neuron differentiation score,[2]; library: Spectrum,inactive: 0
COc1cc(NS(=O)(=O)c2ccc(N)cc2)nc(OC)n1 [Sulfadimethoxine],neuronal differentiation score,[1]; library: Prestwick,inactive: 0
same,dopaminergic neuron differentiation score,[2]; library: Prestwick,inactive: 0
COc1ccc(-c2oc3cc(OC)ccc3c2C(=O)c2ccc(C#N)cc2)cc1,neuronal differentiation score,[1]; library: Tocriscreen,inactive: 0
same,dopaminergic neuron differentiation score,[2]; library: Tocriscreen,inactive: 0
Fc1ccc(C(OCCCc2cnc[nH]2)c2ccc(F)cc2)cc1,neuronal differentiation score,[1]; library: LOPAC,inactive: 0
same,dopaminergic neuron differentiation score,[2]; library: LOPAC,inactive: 1
COc1cc(O)c(C)c(O)c1,neuronal differentiation score,[1]; library: Spectrum,inactive: 0
same,dopaminergic neuron differentiation score,[2]; library: Spectrum,inactive: 0
CC(C)NCC(O)COc1ccc(COCCOC(C)C)cc1 (stereo not drawn) [Bisoprolol hemifumarate salt],neuronal differentiation score,[1]; library: LOPAC,inactive: 0
same,dopaminergic neuron differentiation score,[2]; library: LOPAC,inactive: 0
OC[C@H]1O[C@@H](O[C@H]2[C@H](O)[C@@H](O)C(O)O[C@@H]2CO)[C@H](O)[C@@H](O)[C@H]1O (stereo partly drawn),neuronal differentiation score,[1]; library: Spectrum,inactive: 0
same,dopaminergic neuron differentiation score,[2]; library: Spectrum,inactive: 0
CC1(C)S[C@@H]2[C@H](NC(=O)Cc3ccccc3)C(=O)N2[C@H]1C(=O)O,neuronal differentiation score,[1]; library: Spectrum,inactive: 0
same,dopaminergic neuron differentiation score,[2]; library: Spectrum,inactive: 0
CC1=C(C(=O)O)N2C(=O)[C@@H](NC(=O)[C@H](N)c3ccccc3)[C@H]2SC1,neuronal differentiation score,[1]; library: Spectrum,inactive: 0
same,dopaminergic neuron differentiation score,[2]; library: Spectrum,inactive: 0
CN(C)CCC=C1c2ccccc2CCc2ccccc21,neuronal differentiation score,[1]; library: Spectrum,inactive: 0
same,dopaminergic neuron differentiation score,[2]; library: Spectrum,inactive: 0
C[N+](C)(C)CCOC(=O)CCC(=O)OCC[N+](C)(C)C [Succinylcholine chloride],neuronal differentiation score,[1]; library: LOPAC,inactive: 1
same,dopaminergic neuron differentiation score,[2]; library: LOPAC,inactive: 0
CC(=O)OC1CCC2(C)C(=CCC3C2CCC2(C)C(C(C)CCCC(C)C)CCC32)C1 (stereo not drawn),neuronal differentiation score,[1]; library: Spectrum,inactive: 1
same,dopaminergic neuron differentiation score,[2]; library: Spectrum,inactive: 0
Cc1[nH]ccc2c1[nH]c1cc(=O)ccc12 [Harmol hydrochloride monohydrate],neuronal differentiation score,[1]; library: Phytochemical,inactive: 0
same,dopaminergic neuron differentiation score,[2]; library: Phytochemical,inactive: 0
COc1cc2cc3c4cc(OC)c(OC)cc4cc[n+]3c(C)c2cc1OC,neuronal differentiation score,[1]; library: Spectrum,inactive: 0
same,dopaminergic neuron differentiation score,[2]; library: Spectrum,inactive: 0
CCC(C)(CN(C)C)OC(=O)c1ccccc1 (stereo not drawn) [Amyleine hydrochloride],neuronal differentiation score,[1]; library: Prestwick,inactive: 0
same,dopaminergic neuron differentiation score,[2]; library: Prestwick,inactive: 0
CC[N+](CC)(CC)CC [Tetraethylammonium chloride],neuronal differentiation score,[1]; library: LOPAC,inactive: 0
same,dopaminergic neuron differentiation score,[2]; library: LOPAC,inactive: 0

# Some of the entries so far, as tab-separated lines.
compound	measurement	setting	value
O=c1cc(-c2ccccc2)oc2ccc(O)cc12	neuronal differentiation score	[1]; library: Spectrum	inactive: 0
same	dopaminergic neuron differentiation score	[2]; library: Spectrum	inactive: 0

# Not a retest: entries from further up.
compound,measurement,setting,value
CCn1cc(C(=O)O)c(=O)c2cc(F)c(N3CCNCC3)cc21,neuronal differentiation score,[1]; library: Spectrum,inactive: 0
same,dopaminergic neuron differentiation score,[2]; library: Spectrum,inactive: 0
